# In the supplement of paper PMC8728848:
# The list shows a part of the results.
# How the values were obtained:
# Experiment in all cases: glycan array binding signal (z-score within array); higher = stronger binding
# Conditions in all cases: glycan notation: IUPAC condensed, linker removed
# Fuc(a1-2)Gal = target: Fuc(a1-2)Gal
# In short: (§1)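 From the Consortium for Functional Glycomics database, 3228 arrays were curated, keeping only those whose protein sequence was available. Binding is given as a within-array Z-score averaged across arrays sharing a protein sequence and across linkers. Negative Z-scores can be read as non-binding.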
# Fuc(a1-2)Gal(b1-3)GalNAc = target: Fuc(a1-2)Gal(b1-3)GalNAc
# In short: as §1
# [1] = target: Fuc(a1-2)Gal(b1-3)GalNAc(a1-3)[Fuc(a1-2)]Gal(b1-4)Glc
# In short: as §1
# [2] = target: Fuc(a1-2)Gal(b1-3)GalNAc(a1-3)[Fuc(a1-2)]Gal(b1-4)GlcNAc
# In short: as §1
# [3] = target: Fuc(a1-2)Gal(b1-3)GalNAc(b1-3)Gal
# In short: as §1
# [4] = target: Fuc(a1-2)Gal(b1-3)GalNAc(b1-3)Gal(a1-4)Gal(b1-4)Glc
# In short: as §1
# [5] = target: Fuc(a1-2)Gal(b1-3)GalNAc(b1-4)[Neu5Ac(a2-3)]Gal(b1-4)Glc
# In short: as §1
# Fuc(a1-2)Gal(b1-3)GlcNAc = target: Fuc(a1-2)Gal(b1-3)GlcNAc
# In short: as §1
# [6] = target: Fuc(a1-2)Gal(b1-3)GlcNAc(b1-2)Man(a1-3)[Fuc(a1-2)Gal(b1-3)GlcNAc(b1-2)Man(a1-6)]Man(b1-4)GlcNAc(b1-4)GlcNAc
# In short: as §1
# [7] = target: Fuc(a1-2)Gal(b1-3)GlcNAc(b1-3)Gal(b1-4)Glc
# In short: as §1
# [8] = target: Fuc(a1-2)Gal(b1-3)GlcNAc(b1-3)[Fuc(a1-3)[Gal(b1-4)]GlcNAc(b1-6)]Gal(b1-4)Glc
# In short: as §1
# [9] = target: Fuc(a1-2)Gal(b1-3)[Fuc(a1-4)]GlcNAc
# In short: as §1
# [10] = target: Fuc(a1-2)Gal(b1-3)[Fuc(a1-4)]GlcNAc(b1-2)Man(a1-3)[Fuc(a1-2)Gal(b1-3)[Fuc(a1-4)]GlcNAc(b1-2)Man(a1-6)]Man(b1-4)GlcNAc(b1-4)GlcNAc
# In short: as §1
# [11] = target: Fuc(a1-2)Gal(b1-3)[Fuc(a1-4)]GlcNAc(b1-3)[Fuc(a1-3)[Gal(b1-4)]GlcNAc(b1-6)]Gal(b1-4)Glc
# In short: as §1
# [12] = target: Fuc(a1-2)Gal(b1-3)[Fuc(a1-4)]GlcNAc(b1-3)[Gal(b1-4)GlcNAc(b1-6)]Gal(b1-4)Glc
# In short: as §1
# Fuc(a1-2)Gal(b1-4)Glc = target: Fuc(a1-2)Gal(b1-4)Glc
# In short: as §1
# Fuc(a1-2)Gal(b1-4)Glc6S = target: Fuc(a1-2)Gal(b1-4)Glc6S
# In short: as §1
# Fuc(a1-2)Gal(b1-4)GlcNAc = target: Fuc(a1-2)Gal(b1-4)GlcNAc
# In short: as §1
# [13] = target: Fuc(a1-2)Gal(b1-4)GlcNAc(b1-2)Man(a1-3)[Fuc(a1-2)Gal(b1-4)GlcNAc(b1-2)Man(a1-6)]Man(b1-4)GlcNAc(b1-4)GlcNAc
# In short: as §1
# [14] = target: Fuc(a1-2)Gal(b1-4)GlcNAc(b1-3)Gal(b1-4)GlcNAc
# In short: as §1
# [15] = target: Fuc(a1-2)Gal(b1-4)GlcNAc(b1-3)Gal(b1-4)GlcNAc(b1-3)Gal(b1-4)GlcNAc
# In short: as §1
# [16] = target: Fuc(a1-2)Gal(b1-4)GlcNAc(b1-3)GalNAc
# In short: as §1
# [17] = target: Fuc(a1-2)Gal(b1-4)GlcNAc6S
# In short: as §1
# [18] = target: Fuc(a1-2)Gal(b1-4)[Fuc(a1-3)]GlcNAc
# In short: as §1
# [19] = target: Fuc(a1-2)Gal(b1-4)[Fuc(a1-3)]GlcNAc(b1-2)Man(a1-3)[Fuc(a1-2)Gal(b1-4)[Fuc(a1-3)]GlcNAc(b1-2)Man(a1-6)]Man(b1-4)GlcNAc(b1-4)GlcNAc
# In short: as §1
# [20] = target: Fuc(a1-2)Gal(b1-4)[Fuc(a1-3)]GlcNAc(b1-3)Gal(b1-4)[Fuc(a1-3)]GlcNAc
# In short: as §1
# [21] = target: Fuc(a1-2)Gal(b1-4)[Fuc(a1-3)]GlcNAc(b1-3)Gal(b1-4)[Fuc(a1-3)]GlcNAc(b1-3)Gal(b1-4)[Fuc(a1-3)]GlcNAc
# In short: as §1
# Fuc(a1-2)Gal6S(b1-4)Glc = target: Fuc(a1-2)Gal6S(b1-4)Glc
# In short: as §1
# [22] = target: Fuc(a1-2)Gal6S(b1-4)Glc6S
# In short: as §1
# [23] = target: Fuc(a1-2)Gal6S(b1-4)GlcNAc
# In short: as §1
binder,measurement,setting,value
"Flo10 (Saccharomyces cerevisiae), P36170 (protein) MPVAARYIFLTGLFLLSVANVALGTTEACLPAGEKKNGMTINFYQYSLKDSSTYSNPSYMAYGYADAEKLGSVSGQTKLSIDYSIPCNGASDTCACSDDDATEYSASQVVPVKRGVKLCSDNTTLSSKTEKRENDDCDQGAAYWSSDLFGFYTTPTNVTVEMTGYFLPPKTGTYTFGFATVDDSAILSVGGNVAFECCKQEQPPITSTDFTINGIKPWNADAPTDIKGSTYMYAGYYYPIKIVYSNAVSWGTLPVSVVLPDGTEVNDDFEGYVFSFDDNATQAHCSVPNPAEHARTCVSSATSSWSSSEVCTECTETESTSYVTPYVTSSSWSSSEVCTECTETESTSTSTPYVTSSSSSSSEVCTECTETESTSYVTPYVSSSTAAANYTSSFSSSSEVCTECTETESTSTSTPYVTSSSWSSSEVCTECTETESTSYVTPYVSSSTAAANYTSSFSSSSEVCTECTETESTSTSTPYVTSSSSSSSEVCTECTETESTSYVTPYVSSSTAAANYTSSFSSSSEVCTECTETESTSTSTPYVTSSSWSSSEVCTECTETESTSYVTPYVSSSTAAANYTSSFSSSSEVCTECTETESTSTSTPYATSSTGTATSFTASTSNTMTSLVQTDTTVSFSLSSTVSEHTNAPTSSVESNASTFISSNKGSVKSYVTSSIHSITPMYPSNQTVTSSSVVSTPITSESSESSASVTILPSTITSEFKPSTMKTKVVSISSSPTNLITSYDTTSKDSTVGSSTSSVSLISSISLPSSYSASSEQIFHSSIVSSNGQALTSFSSTKVSSSESSESHRTSPTTSSESGIKSSGVEIESTSTSSFSFHETSTASTSVQISSQFVTPSSPISTVAPRSTGLNSQTESTNSSKETMSSENSASVMPSSSATSPKTGKVTSDETSSGFSRDRTTVYRMTSETPSTNEQTTLITVSSCESNSCSNTVSSAVVSTATTTINGITTEYTTWCPLSATELTTVSKLESEEKTTLITVTSCESGVCSETASPAIVSTATATVNDVVTVYSTWSPQATNKLAVSSDIENSASKASFVSEAAETKSISRNNNFVPTSGTTSIETHTTTTSNASENSDNVSASEAVSSKSVTNPVLISVSQQPRGTPASSMIGSSTASLEMSSYLGIANHLLTNSGISIFIASLLLAIV",glycan array binding signal (z-score),Fuc(a1-2)Gal,-0.687
same,glycan array binding signal (z-score),Fuc(a1-2)Gal(b1-3)GalNAc,0.146
same,glycan array binding signal (z-score),[1],-0.704
same,glycan array binding signal (z-score),[2],0.044
same,glycan array binding signal (z-score),[3],1.8
same,glycan array binding signal (z-score),[4],-0.532
same,glycan array binding signal (z-score),[5],0.374
same,glycan array binding signal (z-score),Fuc(a1-2)Gal(b1-3)GlcNAc,-0.227
same,glycan array binding signal (z-score),[6],-0.597
same,glycan array binding signal (z-score),[7],-0.244
same,glycan array binding signal (z-score),[8],2.09
same,glycan array binding signal (z-score),[9],1.07
same,glycan array binding signal (z-score),[10],-0.673
same,glycan array binding signal (z-score),[11],-0.579
same,glycan array binding signal (z-score),[12],0.024
same,glycan array binding signal (z-score),Fuc(a1-2)Gal(b1-4)Glc,-0.758
same,glycan array binding signal (z-score),Fuc(a1-2)Gal(b1-4)Glc6S,1.91
same,glycan array binding signal (z-score),Fuc(a1-2)Gal(b1-4)GlcNAc,0.201
same,glycan array binding signal (z-score),[13],-0.333
same,glycan array binding signal (z-score),[14],0.244
same,glycan array binding signal (z-score),[15],2.06
same,glycan array binding signal (z-score),[16],-0.457
same,glycan array binding signal (z-score),[17],-0.325
same,glycan array binding signal (z-score),[18],0.415
same,glycan array binding signal (z-score),[19],-0.165
same,glycan array binding signal (z-score),[20],-0.556
same,glycan array binding signal (z-score),[21],0.134
same,glycan array binding signal (z-score),Fuc(a1-2)Gal6S(b1-4)Glc,0.654
same,glycan array binding signal (z-score),[22],-0.28
same,glycan array binding signal (z-score),[23],0.331
